Data reported in the supplement of paper PMC12889115.
The other results are listed elsewhere or left out. These are raw signals, not scaled to a control.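 First-pass screen: polymyxin B was added at a level that permeabilizes the Salmonella outer membrane while sparing the inner membrane. DMSO wells, with and without polymyxin B, defined maximum growth. Because plates differed from one another, each plate's data were ranked separately and the compounds with the lowest OD600 were carried forward as hits.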

Test system: Salmonella enterica serovar Typhimurium SL1344
Test: bacterial growth OD600 after 18 h with compound and polymyxin B; higher = more bacterial growth (less inhibition)
Details: 50 µM, Mueller-Hinton broth

| Structure (SMILES) | bacterial growth OD600 (polymyxin B 1 µg/mL) | bacterial growth OD600 (polymyxin B 0.75 µg/mL) |
| --- | --- | --- |
| COc1ccc(Cl)cc1NC(=O)CCC1CCCN(C(=O)c2ccoc2C)C1 (configuration not stated) | 0.686 |  |
| O=C(N[C@@H]1c2ccccc2C2(CCN(C(=O)c3scc4c3CCCC4)CC2)[C@H]1O)c1ccccc1 |  | 0.602 |
| O=C(Cn1nnnc1CN1CCOCC1)N[C@@H]1CCCC[C@H]1c1ccccc1 |  | 0.79 |
| CCN1CCN(C2(C(=O)NCc3cccc(C)c3)Cc3ccccc3C2)CC1 |  | 0.775 |
| CCOC(=O)C1(Cc2ccc(OC)cc2)CCN(C(=O)CSc2nc(C)cs2)CC1 |  | 0.493 |
| COc1cc(OC)nc(N2C[C@H]3OC(=O)N(CCN4CCCCC4)[C@H]3C2)n1 | 1.17 |  |
| O=C(CCC1CCN(C(=O)C2CCOC2)CC1)NCc1cccc(C(F)(F)F)c1 (configuration not stated) | 1.05 |  |
| CSCCNC(=O)C1CCC(=O)N(CCCN2CCOCC2)C1 (configuration not stated) | 0.859 |  |
| O=C(CCC1(Cc2ccco2)CCC(=O)N1)NCc1ccc(F)cc1F (configuration not stated) |  | 0.915 |
| C/C=C(\C)CN1CCC(N2CCC(C(=O)NCc3cccnc3)CC2)CC1 | 1.08 |  |
| COCC1CCCCN1Cc1nc(-c2ccc(C(=O)OC)cc2)oc1C (configuration not stated) | 0.872 |  |
| CCN(CC1CCCN(CCc2cccc(OC)c2)C1)C(=O)c1cccs1 (configuration not stated) | 0.811 |  |
| Cc1ccc(C(=O)N(CCN2CCCCC2)CC2CCCN(C3CCCC3)C2)s1 (configuration not stated) | 0.748 |  |
| O=C(CC(c1ccccc1)c1ccccc1Cl)N1CCCC1 (configuration not stated) | 0.003 |  |
| O=C(NCc1cccnc1-n1cnc2ccccc21)c1ccsc1 | 0.88 |  |
| COc1cc(NC(=O)CCC2CCCN(C(=O)C(=O)c3ccco3)C2)cc(OC)c1 (configuration not stated) |  | 0.878 |

Single entries from above.
Entry of O=C(Cn1nnnc1CN1CCOCC1)N[C@@H]1CCCC[C@H]1c1ccccc1 under bacterial growth OD600 (polymyxin B 0.75 µg/mL): 0.79
Entry of COc1cc(OC)nc(N2C[C@H]3OC(=O)N(CCN4CCCCC4)[C@H]3C2)n1 under bacterial growth OD600 (polymyxin B 1 µg/mL): 1.17
Entry of O=C(NCc1cccnc1-n1cnc2ccccc21)c1ccsc1 under bacterial growth OD600 (polymyxin B 1 µg/mL): 0.88

(more compounds)

| Structure (SMILES) | bacterial growth OD600 (polymyxin B 1 µg/mL) | bacterial growth OD600 (polymyxin B 0.75 µg/mL) |
| --- | --- | --- |
| COCCNC(=O)c1ccc(OC2CCN(Cc3ccc(F)c(OC)c3)CC2)c(Cl)c1 | 0.828 |  |
| Cc1ccccc1Oc1ncccc1CNC(=O)C(C)N1CCCC1=O (configuration not stated) | 0.865 |  |
| CN(C(=O)CC(c1ccccc1)c1ccccc1Cl)C1CCOCC1 (configuration not stated) |  | 0.031 |
| COC(=O)CNC(=O)CC(c1ccccc1)c1ccc(OC)cc1 (configuration not stated) | 0.87 |  |
| COc1ccc(CCNc2nncc(-c3ccccc3C)n2)c(OC)c1 |  | 0.269 |
| CCC(C)CCNc1ccc(C(=O)N2CCCN(c3ncccn3)CC2)cn1 (configuration not stated) |  | 0.645 |
| Cc1cccc(N2CCN(C(=O)c3cn(CC(C)C)cc(C(=O)N4CCCCCC4)c3=O)CC2)c1C |  | 0.792 |
| CC(=O)c1cccc(OCc2cc(C(=O)N3CCCC(O)C3)n[nH]2)c1 (configuration not stated) | 0.93 |  |
| COc1ccccc1N1CCN(c2nc(CNC(=O)c3ccc(F)c(F)c3)nc3ccccc23)CC1 |  | 0.799 |
| Cc1ccc(-n2cc(CN3CCN(Cc4ccccc4F)C(CCO)C3)cn2)cc1 (configuration not stated) | 0.968 |  |
| Cc1ccccc1N1CCN(C2CCCN(C(=O)c3ccc(F)cc3)C2)CC1 (configuration not stated) | 1.06 |  |
| COc1cccc(OC)c1-c1cnnc(NCCc2nc(C)c3c(n2)CCC3)n1 | 0.917 |  |
| Cc1nnc(-c2cccc(NC(=O)C3CCCCN3C(=O)C3CCCCC3)c2)s1 (configuration not stated) | 1.03 |  |
| OCC1(Cc2ccccc2F)CCCN(Cc2c(F)ccc(F)c2F)C1 (configuration not stated) | 0.055 |  |
| CC(C)c1noc(-c2ccc(NC3CCSC3)nc2)n1 (configuration not stated) |  | 0.836 |
| CN(C)C1(CNC(=O)c2coc(COc3ccccc3)n2)CCCCC1 |  | 0.83 |
